No constants are given. Whether binding was seen depends on the method and setting. In cells and extracts the contact can be indirect. A result given as binding can be weak or reduced; the word gives no strength. Where a sequence is shown, tags or fusion partners need not be part of it.
Tests used:
[1] = biological target: IP3R1-TM-GFP (GFP-tagged IP3R1 truncation mutant containing the transmembrane domain) (human (cDNA from HeLa cells)) (UniProt Q14643); assay: co-IP; in vitro immunoprecipitation from lysates of transfected HEK293T cells in buffer without CaCl2 (25 mM HEPES, 150 mM NaCl, 1% Triton X-100, 1 mM DTT, 1 mM MgCl2, pH 7.4); free Ca2+ adjusted with CaCl2 from 400 μM to 0 μM; antibody at 4 °C overnight
[2] = biological target: IP3R1-TM-GFP (GFP-tagged IP3R1 truncation mutant containing the transmembrane domain) (human (cDNA from HeLa cells)) (UniProt Q14643); assay: co-IP; HEK293T cells co-transfected with 3xFlag- and GFP-tagged constructs; IP with anti-GFP or anti-Flag antibody and Protein A/G Sepharose, 4 °C overnight; 25 mM HEPES, 150 mM NaCl, 1% Triton X-100, 1 mM DTT, 2 mM CaCl2, 1 mM MgCl2, pH 7.4; western blot

Sequences of proteins named here, by UniProt entry; tags and fusion partners are left off. A change or cut given only in a name is not applied to a line headed by its entry.
UniProt Q14643: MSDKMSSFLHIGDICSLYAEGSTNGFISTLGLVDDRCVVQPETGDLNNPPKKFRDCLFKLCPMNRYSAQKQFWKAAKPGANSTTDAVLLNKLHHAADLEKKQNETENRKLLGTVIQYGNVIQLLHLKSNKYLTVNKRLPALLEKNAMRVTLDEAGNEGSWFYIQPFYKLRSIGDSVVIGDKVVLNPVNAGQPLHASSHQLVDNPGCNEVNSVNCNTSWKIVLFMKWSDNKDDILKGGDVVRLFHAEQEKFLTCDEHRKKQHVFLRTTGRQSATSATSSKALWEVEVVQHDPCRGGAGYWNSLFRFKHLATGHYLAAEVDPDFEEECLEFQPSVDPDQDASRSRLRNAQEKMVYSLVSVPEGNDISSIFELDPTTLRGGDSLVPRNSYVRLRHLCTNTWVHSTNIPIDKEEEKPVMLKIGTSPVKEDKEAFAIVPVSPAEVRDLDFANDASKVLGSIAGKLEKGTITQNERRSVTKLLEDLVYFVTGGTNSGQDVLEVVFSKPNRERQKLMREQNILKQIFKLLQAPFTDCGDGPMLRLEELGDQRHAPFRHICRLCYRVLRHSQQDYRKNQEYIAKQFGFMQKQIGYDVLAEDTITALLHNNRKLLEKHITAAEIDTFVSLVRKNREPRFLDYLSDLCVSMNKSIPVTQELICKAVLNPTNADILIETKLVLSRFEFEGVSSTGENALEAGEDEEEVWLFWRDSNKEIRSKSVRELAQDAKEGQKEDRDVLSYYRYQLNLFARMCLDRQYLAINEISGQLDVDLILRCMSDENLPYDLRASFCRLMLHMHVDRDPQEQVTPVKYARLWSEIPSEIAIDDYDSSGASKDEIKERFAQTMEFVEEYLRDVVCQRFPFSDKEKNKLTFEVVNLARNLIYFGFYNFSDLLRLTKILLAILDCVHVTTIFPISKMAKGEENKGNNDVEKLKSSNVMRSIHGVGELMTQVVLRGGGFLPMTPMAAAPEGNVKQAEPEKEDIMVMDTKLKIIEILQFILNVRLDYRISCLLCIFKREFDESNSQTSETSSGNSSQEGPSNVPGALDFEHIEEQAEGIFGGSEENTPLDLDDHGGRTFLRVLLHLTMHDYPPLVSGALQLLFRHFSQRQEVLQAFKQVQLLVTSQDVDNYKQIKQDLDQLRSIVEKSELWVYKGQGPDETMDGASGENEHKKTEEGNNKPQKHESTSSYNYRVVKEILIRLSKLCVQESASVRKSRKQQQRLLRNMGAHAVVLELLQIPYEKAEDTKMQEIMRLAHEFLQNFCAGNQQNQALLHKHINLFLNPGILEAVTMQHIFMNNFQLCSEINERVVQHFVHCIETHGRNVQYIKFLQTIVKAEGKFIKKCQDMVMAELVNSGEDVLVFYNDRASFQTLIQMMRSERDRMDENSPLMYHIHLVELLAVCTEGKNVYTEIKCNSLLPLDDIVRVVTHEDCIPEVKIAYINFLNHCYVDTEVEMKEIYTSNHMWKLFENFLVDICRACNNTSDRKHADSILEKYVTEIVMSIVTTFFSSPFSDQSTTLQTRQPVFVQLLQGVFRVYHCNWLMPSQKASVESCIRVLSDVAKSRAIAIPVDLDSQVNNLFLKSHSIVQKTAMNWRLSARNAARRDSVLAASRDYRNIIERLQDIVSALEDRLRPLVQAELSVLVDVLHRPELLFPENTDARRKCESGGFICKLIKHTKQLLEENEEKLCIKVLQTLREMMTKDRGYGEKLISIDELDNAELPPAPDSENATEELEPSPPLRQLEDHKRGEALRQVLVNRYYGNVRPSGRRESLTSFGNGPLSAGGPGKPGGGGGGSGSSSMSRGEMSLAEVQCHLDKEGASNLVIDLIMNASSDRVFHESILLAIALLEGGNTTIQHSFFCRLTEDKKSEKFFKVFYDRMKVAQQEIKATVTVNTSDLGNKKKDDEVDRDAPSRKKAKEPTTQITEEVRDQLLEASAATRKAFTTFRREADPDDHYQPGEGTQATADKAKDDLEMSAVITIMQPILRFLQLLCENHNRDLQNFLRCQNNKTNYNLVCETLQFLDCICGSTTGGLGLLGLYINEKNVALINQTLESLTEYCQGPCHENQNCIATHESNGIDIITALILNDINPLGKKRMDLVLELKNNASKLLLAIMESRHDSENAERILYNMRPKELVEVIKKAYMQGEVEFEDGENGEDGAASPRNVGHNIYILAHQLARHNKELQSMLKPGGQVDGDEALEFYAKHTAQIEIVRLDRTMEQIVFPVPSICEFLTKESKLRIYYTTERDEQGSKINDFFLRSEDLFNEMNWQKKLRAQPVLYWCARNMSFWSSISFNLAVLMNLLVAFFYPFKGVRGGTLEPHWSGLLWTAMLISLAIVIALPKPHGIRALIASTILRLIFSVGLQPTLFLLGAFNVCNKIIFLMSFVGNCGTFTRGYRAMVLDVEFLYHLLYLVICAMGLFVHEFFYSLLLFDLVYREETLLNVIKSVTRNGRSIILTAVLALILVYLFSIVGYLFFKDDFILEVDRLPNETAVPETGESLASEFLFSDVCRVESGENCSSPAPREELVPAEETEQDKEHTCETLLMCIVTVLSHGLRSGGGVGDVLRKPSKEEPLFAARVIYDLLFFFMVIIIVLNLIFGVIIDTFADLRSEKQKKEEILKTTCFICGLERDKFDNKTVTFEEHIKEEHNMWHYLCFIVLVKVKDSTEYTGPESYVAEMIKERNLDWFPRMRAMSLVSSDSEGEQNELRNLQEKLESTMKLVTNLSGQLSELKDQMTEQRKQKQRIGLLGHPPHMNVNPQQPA

B1: 3 × Flag-RCN1 (reticulocalbin 1) (protein, UniProt Q15293 30-331)
chain: KPTVRKERVVRPDSELGERPPEDNQSFQYDHEAFLGKEDSKTFDQLTPDESKERLGKIVDRIDNDGDGFVTTEELKTWIKRVQKRYIFDNVAKVWKDYDRDKDDKISWEEYKQATYGYYLGNPAEFHDSSDHHTFKKMLPRDERRFKAADLNGDLTATREEFTAFLHPEEFEHMKEIVVLETLEDIDKNGDGFVDQDEYIADMFSHEENGPEPDWVLSEREQFNEFRDLNKDGKLDKDEIRHWILPQDYDHAQAEARHLVYESDKNKDEKLTKEEILENWNMFVGSQATNYGEDLTKNHDEL
For B1, which binding [1] is on record?
The binding was “binds”.

And the binding [2]?
The binding was “binds”.

Source: PMC5533947
